Measured values from publication doi:10.1101/2019.12.13.867358 (bioRxiv, 2019).
These are yes or no findings as the source states them, for the method shown. Some binding calls cover weakened binding; strength is not graded here.

Biological target: T1, Smc4 (S. cerevisiae, UniProt Q12267 1-1418)
T1 sequence (looked up): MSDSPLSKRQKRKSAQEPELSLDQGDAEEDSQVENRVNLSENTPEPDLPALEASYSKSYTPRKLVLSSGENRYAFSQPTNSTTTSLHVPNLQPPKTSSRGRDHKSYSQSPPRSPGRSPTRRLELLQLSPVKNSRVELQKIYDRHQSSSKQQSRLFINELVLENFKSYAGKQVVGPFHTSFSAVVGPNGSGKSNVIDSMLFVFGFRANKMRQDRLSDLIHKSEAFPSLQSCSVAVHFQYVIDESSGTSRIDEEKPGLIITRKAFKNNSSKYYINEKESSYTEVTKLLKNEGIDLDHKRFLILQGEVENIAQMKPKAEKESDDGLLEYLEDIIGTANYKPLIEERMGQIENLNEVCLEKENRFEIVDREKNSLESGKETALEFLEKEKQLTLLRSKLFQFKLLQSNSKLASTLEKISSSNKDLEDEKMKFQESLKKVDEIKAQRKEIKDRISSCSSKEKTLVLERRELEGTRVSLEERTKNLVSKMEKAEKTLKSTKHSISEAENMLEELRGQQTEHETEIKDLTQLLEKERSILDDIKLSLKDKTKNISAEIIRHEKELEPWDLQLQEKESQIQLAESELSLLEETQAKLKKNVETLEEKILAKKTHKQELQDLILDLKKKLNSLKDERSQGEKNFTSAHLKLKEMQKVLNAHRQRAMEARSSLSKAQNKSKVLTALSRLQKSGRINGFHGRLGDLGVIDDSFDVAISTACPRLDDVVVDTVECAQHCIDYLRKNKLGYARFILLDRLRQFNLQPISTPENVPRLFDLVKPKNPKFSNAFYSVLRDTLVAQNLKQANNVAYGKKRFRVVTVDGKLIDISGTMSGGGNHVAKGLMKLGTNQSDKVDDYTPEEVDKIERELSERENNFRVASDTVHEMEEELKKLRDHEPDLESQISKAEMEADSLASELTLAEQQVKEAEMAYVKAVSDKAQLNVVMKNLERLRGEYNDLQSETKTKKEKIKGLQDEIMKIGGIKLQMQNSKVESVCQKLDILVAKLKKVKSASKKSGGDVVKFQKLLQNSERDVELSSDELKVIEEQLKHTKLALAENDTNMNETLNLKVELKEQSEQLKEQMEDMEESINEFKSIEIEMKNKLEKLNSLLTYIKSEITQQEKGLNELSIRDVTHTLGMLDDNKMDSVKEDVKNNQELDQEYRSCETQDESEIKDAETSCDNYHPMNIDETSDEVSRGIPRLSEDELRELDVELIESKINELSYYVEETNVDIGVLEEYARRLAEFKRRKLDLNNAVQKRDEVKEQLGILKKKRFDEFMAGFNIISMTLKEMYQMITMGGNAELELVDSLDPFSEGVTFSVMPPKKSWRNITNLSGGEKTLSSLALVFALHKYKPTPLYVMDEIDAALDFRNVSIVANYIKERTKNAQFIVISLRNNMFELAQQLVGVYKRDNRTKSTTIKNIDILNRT
Experiment: tandem affinity co-purification

- binding: binds
B1: Ycs4 (protein, UniProt Q06156 1-1176)
chain: MSGFSLSEYLTKFQTTDRESYPRLQDPSRELNVIIDQLAVSPEQIDASPDSLEALIDLCHDFPHLTPKLQTQLSYLISSSLSNLSKDIKANLSSNVNFTEIGGLIPQWKRHLEEYGYLIQVLLTFLQDELHKVSSQSTNLNRSAKNSKNDSANVELFKRDCNQMENLLESITKLLEINLSKIFQTTPEKDLFIGLFTRPLFVLLEIEPVTKVSSLKMFIQRILAMCVKNHGQSSSIQSSLMTNLTYFLHLSVFNAELLKLLNDEYNYPQLTEDILKEISTRVFNAKDTTGPKAISNFLIKLSELSPGIMLRQMNLVITLLNNSSITLRCSVVEACGNIVAELAQDPQTMEHYKQQIAVLIELLEERFQDSNPYVRTKAIQGCSKICDLSSKFNKSKAKFTSLAVRSLQDRSSLVRRNSVKLLSKLLLKHPFKAIHGSQLRLSEWEEYLKGSESQLNSTLKKVESQETLNDTIERSLIEEEVEQDEGQCRTELEGSFNKSAELSRIENEVENINATNTSVLMKLKLMIVYYKDAISFIKEIHKSIELISNLLFSKNRNEVLESMDFLVLADAFDIELSEFGIKKMLHLVWMKGTNDEGTSISVHLIECYKQLFLTAPDSCNMQEKAAHIAKNLINLSIGASIADLASLEQLLGMMYEQKLIDQHVINILWAIYNSASKASMQKEQNVNNRDSEKGFSKEQIHGSIIILGMLSLADNEIALKGLESLLNIGLGAVGLKDLTLCRYSCLALERMVPKRSTIITKAINQELEDVAVKKLYAIIINYTKDNEYYPMCEQALSALFTISSKPDILATDLIREKTMMTFGKPEEEDSILSLEQSSRVVSLSQLLFIVGQVAIKTLVYLEKCEAEFKKRKIEAETRNGKVKNQGADVTNTTQDNGGDKELEMIGGTNEDDFTDAIQFVKENELLFGEKSILGKFCPIVEEIVSNSSRFSDPMLQRTATLCLEKLMCLSSKYCEKSLPLLITVMEKSPDPTIRSNAVLGLGDMAVCFNNLVDENTDYLYRRLHDENLMVQRTCLMTVTFLILAGQVKVKGQLGEMAKCLDNPDQGISDMCRLFFTELASKDNAIYNGFIDIFSNLSSDDLLGKESFKKIIKFLLTFIDKERHQKQLNEKLVGRLRKCETQKQWDDIAFVLNNLPYKNEDVTALLEQGFKVVSAKE
